One data set deals with S. cerevisiae. The data set is described as follows: Yeast grown in the presence of the mogroside, cells lysed, mogroside content by HPLC. The format is cell-based. As to conditions: for mogroside content by HPLC: S. cerevisiae, lysed cells.
Data set [1] in a line: Analytical results (observed concentration) of the sensory test samples. As to conditions: theoretical 175 ppm in LSB, n = 2.
The next data set relates to Y. lipolytica. The data set is described as follows: Yeast grown in the presence of the mogroside, cells lysed, mogroside content by HPLC. The format is cell-based.
The subject of a further data set is Candida bombicola. The data set is described as follows: Tolerance to microbial hydrolysis: yeast incubated in YPD with the mogroside, supernatant analyzed by HPLC. It is filed as cell-based. As to conditions: 1 mg/ml, after 3 days.
Another data set concerns Yarrowia lipolytica. The data set is described as above. The format is cell-based. The following applies: 1 mg/ml, after 3 days.
The subject of another data set is Saccharomyces cerevisiae. Described as above. It is filed as cell-based. As to conditions: 1 mg/ml, after 3 days.

“Also recorded” adds a separate entry of the source.

In the case of `C[C@H](CC[C@@H](O[C@@H]1O[C@H](CO[C@H]2O[C@H](CO)[C@@H](O)[C@H](O)[C@H]2O)[C@@H](O)[C@H](O)[C@H]1O[C@@H]1O[C@H](CO)[C@@H](O)[C@H](O)[C@H]1O)C(C)(C)O)C1CC[C@@]2(C)C3CC=C4C(CC[C@H](O[C@@H]5O[C@H](CO)[C@@H](O)[C@H](O)[C@H]5O)C4(C)C)[C@]3(C)[C@H](O)C[C@]12C` (stereo partly shown) [Compound 1], the hydrolysis products result with S. cerevisiae (S. cerevisiae grown in the presence of the compound) and in the data set on Y. lipolytica (Y. lipolytica grown in the presence of the compound) was “no hydrolysis product from Compound 1 was detected; also recorded: no hydrolysis products due to hydrolysis of Compound 1 was observed” in each case. The entries for the “Observed (μM)” value in data set [1] (Test day) and in data set [1] (the day before the testing day) were 132.20 ± 1.54 (n = 2) μM and 134.48 ± 7.31 (n = 2) μM, respectively. The “hydrolysis products observed by HPLC” value in the data set with Candida bombicola, in the data set with Yarrowia lipolytica and in the data set on Saccharomyces cerevisiae was “no hydrolysis products observed” throughout.

Take `C[C@H](CC[C@@H](O[C@@H]1O[C@H](CO[C@@H]2O[C@H](CO)[C@@H](O)[C@H](O)[C@H]2O)[C@@H](O)[C@H](O)[C@H]1O[C@@H]1O[C@H](CO)[C@@H](O)[C@H](O)[C@H]1O)C(C)(C)O)[C@H]1CC[C@@]2(C)[C@@H]3CC=C4[C@@H](CC[C@H](O[C@@H]5O[C@H](CO[C@@H]6O[C@H](CO)[C@@H](O)[C@H](O)[C@H]6O)[C@@H](O)[C@H](O)[C@H]5O)C4(C)C)[C@]3(C)[C@H](O)C[C@]12C` [Mogroside V, reference compound]: the “mogroside content by HPLC” value with S. cerevisiae (after 1 day of incubation) is “produced a mixture of Mogroside V, Mogrosides IV, and Mogroside IIIE”; in the data set on S. cerevisiae (after 2 days of incubation), “substantially all of the mogrosides were converted to Mogroside IIIE”; in the data set with Y. lipolytica (Y. lipolytica, after 2 days of incubation, lysed cells), “produced mostly Mogroside IIIE”. Further, the “hydrolysis products observed by HPLC” value in the data set on Candida bombicola, in the data set on Yarrowia lipolytica and with Saccharomyces cerevisiae was “hydrolyzed Mogroside V to Mogroside IIIE” each time.

The values are drawn from patent US11060124B2, “Methods for making high intensity sweeteners” (Firmenich Incorporated, priority 2017, dated 2021).
